Consider 1 molecule from article PMC11274643, “Design, Synthesis, Characterization, and Cytotoxicity of New Pyrazolylmethylene-2-thioxoimidazolidin-4-one Derivatives towards Androgen-Sensitive LNCaP Prostate Cancer Cells” (Biomolecules, 2024).

By IC50 is commonly meant the concentration that gives 50% inhibition.

In one assay the test system is AR+LNCaP cells. Kind of assay: DNA content at cell cycle stages (Propidium Iodide flow cytometry). Type of assay: cell-based, human. To be noted: IC50 concentration, 1 nM DHT. On the procedure:
The amount of DNA contents of AR^+LNCaP cells stimulated with 1 nM DHT and treated with representative test compounds 3i and 3k at the different stages of the cell cycle were quantitatively evaluated as described previously. Untreated AR^+LNCaP and Enzalutamide-treated AR^+LNCaP were used as negative and positive controls, respectively. The Ab139418–Propidium Iodide Flow Cytometry Kit for Cell Cycle Analysis (ab139418, Abcam, Cambridge, UK) was employed for this assay following the procedures provided by the supplier.
The synthesized compounds 3i and 3k, that induced higher production of Caspase 3 in AR^+LNCaP cells (Figure 4), were further analyzed. […] The IC50 concentrations of the test compounds were applied in the presence of 1 nM DHT. Firstly, the ab139418-Propidium Iodide Flow Cytometry Kit for Cell Cycle Analysis (Bio vision, Boston, MA, USA) was used to quantify DNA contents at each cell cycle stage as an indicator of the cell cycle growth arrest.
In general terms: Flow cytometry measures light scatter and fluorescence of single cells or particles in a stream.

The test system of assay [1] is AR-PC-3 androgen-insensitive human prostate cancer cell line. The assay is described as follows: MTT in vitro cytotoxicity assay, 24 h incubation. Type of assay: cell-based. On the procedure:
(§1) The antitumor properties of pyrazolylmethylene-2-thioxoimidazolidin-4-one derivatives (3a–p) against androgen-sensitive (AR^+LNCaP; ATCC CRL-1740, Accession: CVCL_0395) and androgen-insensitive (AR^-PC-3; ATCC CRL-1435, Accession: CVCL_D5ZS) human prostate cancer cell lines in addition to normal human lung fibroblast cell line (Wi38, Accession: CVCL_2759) were evaluated by MTT assay. AR^+LNCaP, AR^-PC-3, and Wi38 cell lines were purchased frozen in liquid nitrogen from Egyptian Company for Production of Vaccines, Sera and Drugs, Cairo, Egypt (VACSERA). Tumor cell lines were stored as monolayer cultures in DMEM supplemented with 10% FBS and 1% penicillin–streptomycin. MTT assay was carried out as described previously in the literature. In brief, AR^+LNCaP, AR^-PC-3, and Wi38 cells were cultured into 96-well plates containing 100 µL of culture medium per each well. Cells were incubated with dilution series compounds (3a–p) to give a final concentration of 10, 25, 50, 75, 100, 200, 300, 500, 750, and 1000 ug/mL. A control containing only culture medium was also applied. […] Absorbance at 550 nm was measured. The formula (Reading of extract/Reading of negative control) × 100 was applied to calculate the viability percentage. The IC50 value of test compounds (3a–p) was also determined using CPE measurements of normal Wi38 cells (normal human lung fibroblast cells). […]

For assay [2], the system named is Wi38 normal human lung fibroblast cell line. The assay is described as follows: MTT in vitro cytotoxicity assay, 24 h incubation. It is filed as cell-based. Particulars: WI-38. On the procedure:
as §1

Assay [3] has as its system AR-PC-3 androgen-insensitive human prostate cancer cell line. Kind of assay: MTT cytotoxicity assay in presence of 1 nM DHT, 48 h incubation. Type of assay: cell-based. On the procedure: as §1, with “Cells were incubated with dilution series compounds (3a–p) to give a final concentration of 10, 25, 50, 75, 100, 200, 300, 500, 750, and 1000 ug/mL.” left out, “applied. The assay was performed in triplicate. The cells were incubated overnight to grow at 37 °C in 5% CO2.” for “applied.”

Assay [4] relates to Wi38 normal human lung fibroblast cell line. Described as above. It is filed as cell-based. Particulars: WI-38, read-out: IC50 Wi38. On the procedure:
as §1, with “Cells were incubated with dilution series compounds (3a–p) to give a final concentration of 10, 25, 50, 75, 100, 200, 300, 500, 750, and 1000 ug/mL.” left out, “applied. The assay was performed in triplicate. The cells were incubated overnight to grow at 37 °C in 5% CO2.” for “applied.”

Molecules are shown by their SMILES.

For `CNC(=O)c1ccc(N2C(=S)N(c3ccc(C#N)c(C(F)(F)F)c3)C(=O)C2(C)C)cc1F` [Enzalutamide, reference compound], the “DNA Content (%) S” value in the assay on AR+LNCaP cells is reported as 13.61%. The results for the IC50 in assay [1], in assay [2] and in assay [3] were 15.3 ± 0.19 µM, 27.5 ± 0.36 µM and 13.6 ± 0.27 µM, respectively. Moreover, the CC50 in assay [4] stood at 21.5 ± 0.32 µM.
